Data taken from PMC5699845.
No constants are given. Whether binding was seen depends on the method and setting. For some assays here: In cells and extracts the contact can be indirect. Some entries that bind do so weakly or less than the wild type. For some assays here: Tags and fused reporters may be left off the sequences shown.

Amino acid sequences for entries named in this document (tags omitted).
UniProt O00463: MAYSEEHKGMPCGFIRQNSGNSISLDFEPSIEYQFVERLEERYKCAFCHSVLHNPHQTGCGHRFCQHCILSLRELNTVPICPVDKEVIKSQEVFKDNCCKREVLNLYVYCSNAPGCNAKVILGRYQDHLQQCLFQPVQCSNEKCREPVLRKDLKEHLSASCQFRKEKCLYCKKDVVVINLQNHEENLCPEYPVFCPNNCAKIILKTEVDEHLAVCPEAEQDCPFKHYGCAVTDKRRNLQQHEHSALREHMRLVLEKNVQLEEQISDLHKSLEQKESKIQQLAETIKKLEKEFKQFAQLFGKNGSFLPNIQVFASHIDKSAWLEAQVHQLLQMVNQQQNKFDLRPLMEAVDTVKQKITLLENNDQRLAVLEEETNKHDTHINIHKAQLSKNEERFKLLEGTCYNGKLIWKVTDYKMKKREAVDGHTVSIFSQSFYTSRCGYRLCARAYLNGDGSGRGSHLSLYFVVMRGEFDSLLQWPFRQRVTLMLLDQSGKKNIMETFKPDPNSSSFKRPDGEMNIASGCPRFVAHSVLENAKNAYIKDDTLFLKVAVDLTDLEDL

T1: TRAF2, endogenous (human (endogenous in 293T, HeLa, THP1)) (UniProt Q12933)
T1 sequence: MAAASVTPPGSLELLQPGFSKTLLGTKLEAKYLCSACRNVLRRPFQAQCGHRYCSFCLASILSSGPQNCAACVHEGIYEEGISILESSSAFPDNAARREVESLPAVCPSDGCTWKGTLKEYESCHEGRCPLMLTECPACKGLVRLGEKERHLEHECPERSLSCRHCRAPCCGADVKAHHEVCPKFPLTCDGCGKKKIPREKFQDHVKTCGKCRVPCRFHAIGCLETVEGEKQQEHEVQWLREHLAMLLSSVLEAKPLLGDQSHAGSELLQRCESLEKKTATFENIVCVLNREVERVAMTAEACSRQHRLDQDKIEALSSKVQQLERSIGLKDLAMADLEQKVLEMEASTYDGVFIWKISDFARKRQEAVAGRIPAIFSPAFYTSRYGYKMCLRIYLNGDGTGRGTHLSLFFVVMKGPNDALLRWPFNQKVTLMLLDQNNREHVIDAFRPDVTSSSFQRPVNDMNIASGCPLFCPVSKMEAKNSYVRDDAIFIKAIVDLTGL

T2: Flag-tagged TRAF2 (human) (UniProt Q12933)
T2 sequence: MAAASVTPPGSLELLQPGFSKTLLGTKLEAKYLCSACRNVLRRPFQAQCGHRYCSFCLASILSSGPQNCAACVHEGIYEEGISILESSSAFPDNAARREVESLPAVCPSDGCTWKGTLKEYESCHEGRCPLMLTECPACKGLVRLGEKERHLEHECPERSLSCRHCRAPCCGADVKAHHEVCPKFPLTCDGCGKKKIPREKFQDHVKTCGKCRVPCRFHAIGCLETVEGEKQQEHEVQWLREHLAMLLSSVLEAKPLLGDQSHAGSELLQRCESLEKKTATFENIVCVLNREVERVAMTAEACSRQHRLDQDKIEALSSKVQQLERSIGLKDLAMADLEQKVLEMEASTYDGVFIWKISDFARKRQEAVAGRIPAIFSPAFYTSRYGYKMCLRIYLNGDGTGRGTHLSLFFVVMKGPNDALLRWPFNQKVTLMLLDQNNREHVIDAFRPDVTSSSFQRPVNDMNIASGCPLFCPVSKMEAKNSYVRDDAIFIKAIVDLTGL

T3: His-tagged TRAF2 (recombinant) (human) (UniProt Q12933)
T3 sequence: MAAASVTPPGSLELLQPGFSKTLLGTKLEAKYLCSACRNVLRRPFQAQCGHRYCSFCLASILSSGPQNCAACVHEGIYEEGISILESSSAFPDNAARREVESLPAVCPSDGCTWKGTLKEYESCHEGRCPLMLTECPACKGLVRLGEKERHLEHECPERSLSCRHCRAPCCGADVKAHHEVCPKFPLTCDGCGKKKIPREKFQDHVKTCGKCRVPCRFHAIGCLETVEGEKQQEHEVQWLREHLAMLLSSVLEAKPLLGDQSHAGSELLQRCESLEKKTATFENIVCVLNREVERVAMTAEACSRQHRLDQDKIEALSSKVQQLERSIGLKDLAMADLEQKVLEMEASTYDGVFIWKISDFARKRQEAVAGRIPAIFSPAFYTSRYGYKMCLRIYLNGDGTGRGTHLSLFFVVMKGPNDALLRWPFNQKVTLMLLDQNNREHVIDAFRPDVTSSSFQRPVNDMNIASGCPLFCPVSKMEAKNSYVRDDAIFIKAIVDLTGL

T4: His-tagged TRAF2C (TRAF-C domain of TRAF2, amino acids 349–496) (human) (UniProt Q12933)
T4 sequence: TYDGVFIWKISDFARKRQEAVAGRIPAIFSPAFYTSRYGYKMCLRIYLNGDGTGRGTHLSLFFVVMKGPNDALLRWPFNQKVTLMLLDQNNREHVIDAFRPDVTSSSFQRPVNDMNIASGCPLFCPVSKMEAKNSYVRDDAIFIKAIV


Columns and labels:
[1] = molecular target: T1, TRAF2, endogenous (human (endogenous in 293T, HeLa, THP1)); assay: co-IP; endogenous proteins; lysates of non-stimulated 293T, HeLa and THP1 cells immunoprecipitated with anti-TRAF2, 3 or 6 antibodies, Western blot
[2] = molecular target: T2, Flag-tagged TRAF2 (human); assay: co-IP; TRAFs-deficient 293T cells reconstituted with TRAF2, 3, 5 or 6, SeV-infected for the indicated times; lysates immunoprecipitated with anti-Flag antibody, Western blot
[3] = molecular target: T3, His-tagged TRAF2 (recombinant) (human); assay: pull-down; 10 μg TBK1-Flag and 50 μg His-TRAF2/3/5/6/2C in 1 ml PBS with 20 μl Ni-NTA beads, 4°C, 2 h; washed with PBS containing 30 mM imidazole; immunoblot; both purified
[4] = molecular target: His-tagged TRAF5 (recombinant) (human) (UniProt O00463); assay: as above
[5] = molecular target: T4, His-tagged TRAF2C (TRAF-C domain of TRAF2, amino acids 349–496) (human); assay: condition: 10 μg TBK1-Flag and 50 μg His-TRAF2C in 1 ml; pull-down; 10 μg TBK1-Flag and 50 μg His-TRAF2/3/5/6/2C in 1 ml PBS with 20 μl Ni-NTA beads, 4°C, 2 h; washed with PBS containing 30 mM imidazole; immunoblot; both purified

binding [1]	binding [2]	binding [3]	binding [4]	binding [5]	Binder
binds	binds				TBK1, endogenous (protein, UniProt Q9UHD2 1-729) MQSTSNHLWLLSDILGQGATANVFRGRHKKTGDLFAIKVFNNISFLRPVDVQMREFEVLKKLNHKNIVKLFAIEEETTTRHKVLIMEFCPCGSLYTVLEEPSNAYGLPESEFLIVLRDVVGGMNHLRENGIVHRDIKPGNIMRVIGEDGQSVYKLTDFGAARELEDDEQFVSLYGTEEYLHPDMYERAVLRKDHQKKYGATVDLWSIGVTFYHAATGSLPFRPFEGPRRNKEVMYKIITGKPSGAISGVQKAENGPIDWSGDMPVSCSLSRGLQVLLTPVLANILEADQEKCWGFDQFFAETSDILHRMVIHVFSLQQMTAHKIYIHSYNTATIFHELVYKQTKIISSNQELIYEGRRLVLEPGRLAQHFPKTTEENPIFVVSREPLNTIGLIYEKISLPKVHPRYDLDGDASMAKAITGVVCYACRIASTLLLYQELMRKGIRWLIELIKDDYNETVHKKTEVVITLDFCIRNIEKTVKVYEKLMKINLEAAELGEISDIHTKLLRLSSSQGTIETSLQDIDSRLSPGGSLADAWAHQEGTHPKDRNVEKLQVLLNCMTEIYYQFKKDKAERRLAYNEEQIHKFDKQKLYYHATKAMTHFTDECVKKYEAFLNKSEEWIRKMLHLRKQLLSLTNQCFDIEEEVSKYQEYTNELQETLPQKMFTASSGIKHTMTPIYPSSNTLVEMTLGMKKLKEEMEGVVKELAENNHILERFGSLTMDGGLRNVDCL
		binds	binds weakly	no binding	Recombinant TBK1-Flag (protein, UniProt Q9UHD2 1-729) MQSTSNHLWLLSDILGQGATANVFRGRHKKTGDLFAIKVFNNISFLRPVDVQMREFEVLKKLNHKNIVKLFAIEEETTTRHKVLIMEFCPCGSLYTVLEEPSNAYGLPESEFLIVLRDVVGGMNHLRENGIVHRDIKPGNIMRVIGEDGQSVYKLTDFGAARELEDDEQFVSLYGTEEYLHPDMYERAVLRKDHQKKYGATVDLWSIGVTFYHAATGSLPFRPFEGPRRNKEVMYKIITGKPSGAISGVQKAENGPIDWSGDMPVSCSLSRGLQVLLTPVLANILEADQEKCWGFDQFFAETSDILHRMVIHVFSLQQMTAHKIYIHSYNTATIFHELVYKQTKIISSNQELIYEGRRLVLEPGRLAQHFPKTTEENPIFVVSREPLNTIGLIYEKISLPKVHPRYDLDGDASMAKAITGVVCYACRIASTLLLYQELMRKGIRWLIELIKDDYNETVHKKTEVVITLDFCIRNIEKTVKVYEKLMKINLEAAELGEISDIHTKLLRLSSSQGTIETSLQDIDSRLSPGGSLADAWAHQEGTHPKDRNVEKLQVLLNCMTEIYYQFKKDKAERRLAYNEEQIHKFDKQKLYYHATKAMTHFTDECVKKYEAFLNKSEEWIRKMLHLRKQLLSLTNQCFDIEEEVSKYQEYTNELQETLPQKMFTASSGIKHTMTPIYPSSNTLVEMTLGMKKLKEEMEGVVKELAENNHILERFGSLTMDGGLRNVDCL
